According to the supplement of paper PMC10060354, “Discovery of a small molecule ligand of FRS2 that inhibits invasion and tumor growth” (Cellular Oncology, 2022):
Repeats are few or missing, and single values can be far off.

The chains behind the UniProt entries cited, without tags or fusion partners. Where a name states a change or a piece, a line headed by the entry shows the natural chain unless it says otherwise.
UniProt O43670: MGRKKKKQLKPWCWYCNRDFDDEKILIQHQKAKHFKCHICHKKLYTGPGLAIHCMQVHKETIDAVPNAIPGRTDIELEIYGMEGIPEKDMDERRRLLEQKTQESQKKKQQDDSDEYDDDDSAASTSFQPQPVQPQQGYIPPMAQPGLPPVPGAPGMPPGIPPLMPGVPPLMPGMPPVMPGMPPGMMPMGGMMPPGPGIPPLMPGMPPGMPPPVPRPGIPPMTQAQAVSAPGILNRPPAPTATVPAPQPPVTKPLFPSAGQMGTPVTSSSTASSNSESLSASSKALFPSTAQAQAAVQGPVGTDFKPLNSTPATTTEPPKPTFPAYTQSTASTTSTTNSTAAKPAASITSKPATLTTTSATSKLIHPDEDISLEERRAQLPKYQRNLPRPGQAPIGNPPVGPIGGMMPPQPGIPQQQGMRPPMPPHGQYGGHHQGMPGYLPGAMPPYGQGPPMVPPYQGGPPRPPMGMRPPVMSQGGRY
UniProt O94766: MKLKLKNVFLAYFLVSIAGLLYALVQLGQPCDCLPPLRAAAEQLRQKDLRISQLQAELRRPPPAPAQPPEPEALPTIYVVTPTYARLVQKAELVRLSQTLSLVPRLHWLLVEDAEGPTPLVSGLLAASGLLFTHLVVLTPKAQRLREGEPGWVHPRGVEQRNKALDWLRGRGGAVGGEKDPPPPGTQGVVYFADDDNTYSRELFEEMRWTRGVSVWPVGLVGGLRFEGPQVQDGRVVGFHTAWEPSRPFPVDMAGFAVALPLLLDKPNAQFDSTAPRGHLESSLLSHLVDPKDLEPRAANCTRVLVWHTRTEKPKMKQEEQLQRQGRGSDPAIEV
UniProt Q9P2J5: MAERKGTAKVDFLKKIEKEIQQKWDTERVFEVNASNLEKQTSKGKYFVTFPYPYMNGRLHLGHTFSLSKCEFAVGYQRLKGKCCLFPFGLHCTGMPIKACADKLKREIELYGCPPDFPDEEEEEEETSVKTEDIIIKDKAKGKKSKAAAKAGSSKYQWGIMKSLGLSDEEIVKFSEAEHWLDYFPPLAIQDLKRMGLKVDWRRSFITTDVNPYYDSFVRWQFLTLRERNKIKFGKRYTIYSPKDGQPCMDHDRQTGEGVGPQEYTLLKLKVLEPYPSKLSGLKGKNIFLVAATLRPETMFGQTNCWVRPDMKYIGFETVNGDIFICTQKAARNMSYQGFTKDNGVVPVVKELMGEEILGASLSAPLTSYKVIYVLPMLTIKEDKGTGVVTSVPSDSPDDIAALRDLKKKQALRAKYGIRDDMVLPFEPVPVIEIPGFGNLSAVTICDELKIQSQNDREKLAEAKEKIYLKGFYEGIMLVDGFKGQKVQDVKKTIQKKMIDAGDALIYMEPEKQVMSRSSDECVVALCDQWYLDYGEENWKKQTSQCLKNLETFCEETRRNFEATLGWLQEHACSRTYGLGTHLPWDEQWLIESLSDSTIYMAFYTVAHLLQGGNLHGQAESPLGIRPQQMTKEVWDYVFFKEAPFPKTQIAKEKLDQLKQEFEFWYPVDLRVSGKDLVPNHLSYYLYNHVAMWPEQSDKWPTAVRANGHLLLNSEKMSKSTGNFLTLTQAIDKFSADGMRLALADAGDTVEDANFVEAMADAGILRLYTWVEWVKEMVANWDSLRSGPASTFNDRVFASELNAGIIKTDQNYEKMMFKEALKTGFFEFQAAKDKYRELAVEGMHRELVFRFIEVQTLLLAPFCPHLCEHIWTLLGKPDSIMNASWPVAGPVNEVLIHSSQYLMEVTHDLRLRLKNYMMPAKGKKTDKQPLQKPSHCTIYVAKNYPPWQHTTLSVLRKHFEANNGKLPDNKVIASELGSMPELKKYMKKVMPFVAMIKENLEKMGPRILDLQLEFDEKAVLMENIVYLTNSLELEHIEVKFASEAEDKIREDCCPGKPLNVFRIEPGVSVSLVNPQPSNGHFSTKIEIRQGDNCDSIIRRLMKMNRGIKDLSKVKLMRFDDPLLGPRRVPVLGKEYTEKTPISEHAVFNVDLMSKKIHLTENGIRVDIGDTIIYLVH
UniProt Q96JB8: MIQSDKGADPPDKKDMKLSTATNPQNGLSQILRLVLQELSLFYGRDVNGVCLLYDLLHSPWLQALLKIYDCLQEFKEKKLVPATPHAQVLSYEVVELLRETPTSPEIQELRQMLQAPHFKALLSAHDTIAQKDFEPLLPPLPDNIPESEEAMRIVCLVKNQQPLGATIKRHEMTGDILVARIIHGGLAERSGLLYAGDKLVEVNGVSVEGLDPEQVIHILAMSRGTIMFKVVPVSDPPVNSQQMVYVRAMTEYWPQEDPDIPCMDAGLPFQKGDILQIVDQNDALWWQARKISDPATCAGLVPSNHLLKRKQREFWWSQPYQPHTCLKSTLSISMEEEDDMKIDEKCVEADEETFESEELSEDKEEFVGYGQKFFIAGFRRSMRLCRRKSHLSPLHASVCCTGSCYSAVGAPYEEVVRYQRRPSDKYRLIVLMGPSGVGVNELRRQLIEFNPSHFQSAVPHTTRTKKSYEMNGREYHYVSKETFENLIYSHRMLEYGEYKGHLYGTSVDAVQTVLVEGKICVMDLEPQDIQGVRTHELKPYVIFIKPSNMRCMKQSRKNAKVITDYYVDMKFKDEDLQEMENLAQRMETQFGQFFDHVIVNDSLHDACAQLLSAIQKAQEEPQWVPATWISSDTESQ
UniProt O95825: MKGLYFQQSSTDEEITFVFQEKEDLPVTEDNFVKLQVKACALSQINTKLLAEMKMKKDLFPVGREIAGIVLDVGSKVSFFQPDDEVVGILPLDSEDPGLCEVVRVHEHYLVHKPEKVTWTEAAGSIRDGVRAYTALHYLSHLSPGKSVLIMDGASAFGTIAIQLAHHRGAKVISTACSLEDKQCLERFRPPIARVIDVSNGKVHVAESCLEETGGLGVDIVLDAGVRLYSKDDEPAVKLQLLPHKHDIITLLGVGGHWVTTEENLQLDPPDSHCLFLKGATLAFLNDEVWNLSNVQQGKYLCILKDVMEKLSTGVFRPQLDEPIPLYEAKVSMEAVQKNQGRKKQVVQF
UniProt Q16875: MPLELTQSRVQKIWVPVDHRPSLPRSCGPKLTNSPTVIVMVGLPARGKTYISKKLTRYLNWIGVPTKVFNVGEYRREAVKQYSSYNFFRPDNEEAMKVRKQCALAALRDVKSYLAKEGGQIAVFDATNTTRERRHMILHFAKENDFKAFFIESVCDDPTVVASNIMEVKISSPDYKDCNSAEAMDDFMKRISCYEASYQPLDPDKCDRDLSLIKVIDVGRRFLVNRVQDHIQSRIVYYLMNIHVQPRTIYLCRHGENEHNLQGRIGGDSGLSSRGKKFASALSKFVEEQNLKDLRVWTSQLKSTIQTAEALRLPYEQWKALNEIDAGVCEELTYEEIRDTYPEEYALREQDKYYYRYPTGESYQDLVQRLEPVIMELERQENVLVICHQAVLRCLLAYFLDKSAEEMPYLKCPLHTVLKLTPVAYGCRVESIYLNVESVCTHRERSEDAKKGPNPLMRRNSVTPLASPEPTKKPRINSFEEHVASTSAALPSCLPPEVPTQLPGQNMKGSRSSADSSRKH
UniProt Q8NEC7: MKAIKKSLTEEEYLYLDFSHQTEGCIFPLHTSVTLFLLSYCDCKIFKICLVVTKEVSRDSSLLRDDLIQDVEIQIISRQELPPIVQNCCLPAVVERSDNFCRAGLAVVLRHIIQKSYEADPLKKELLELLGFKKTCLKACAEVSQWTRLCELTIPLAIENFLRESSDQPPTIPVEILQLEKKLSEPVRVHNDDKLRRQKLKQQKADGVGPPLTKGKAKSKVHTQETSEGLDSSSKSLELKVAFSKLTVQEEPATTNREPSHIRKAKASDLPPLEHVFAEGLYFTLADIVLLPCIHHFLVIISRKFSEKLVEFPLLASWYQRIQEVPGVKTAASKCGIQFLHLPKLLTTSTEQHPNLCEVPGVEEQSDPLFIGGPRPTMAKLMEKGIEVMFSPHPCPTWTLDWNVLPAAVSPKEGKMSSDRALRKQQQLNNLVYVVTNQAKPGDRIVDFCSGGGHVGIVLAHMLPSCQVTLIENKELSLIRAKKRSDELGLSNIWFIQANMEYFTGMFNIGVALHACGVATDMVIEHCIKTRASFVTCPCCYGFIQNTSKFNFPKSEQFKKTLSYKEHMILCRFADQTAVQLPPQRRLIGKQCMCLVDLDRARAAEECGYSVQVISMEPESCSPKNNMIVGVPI
UniProt Q9BVA1, whole entry: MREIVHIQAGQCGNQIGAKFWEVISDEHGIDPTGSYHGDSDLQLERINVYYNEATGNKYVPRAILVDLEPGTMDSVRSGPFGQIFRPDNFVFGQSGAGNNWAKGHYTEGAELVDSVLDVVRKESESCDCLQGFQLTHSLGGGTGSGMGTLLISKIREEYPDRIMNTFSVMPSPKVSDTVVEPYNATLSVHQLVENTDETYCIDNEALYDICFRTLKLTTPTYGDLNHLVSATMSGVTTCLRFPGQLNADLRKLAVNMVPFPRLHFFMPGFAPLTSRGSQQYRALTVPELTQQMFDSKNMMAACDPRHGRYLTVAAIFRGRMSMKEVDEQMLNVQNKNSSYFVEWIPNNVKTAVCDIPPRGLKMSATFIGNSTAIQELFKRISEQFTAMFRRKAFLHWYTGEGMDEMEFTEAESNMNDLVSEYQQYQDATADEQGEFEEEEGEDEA
UniProt Q9HAW4: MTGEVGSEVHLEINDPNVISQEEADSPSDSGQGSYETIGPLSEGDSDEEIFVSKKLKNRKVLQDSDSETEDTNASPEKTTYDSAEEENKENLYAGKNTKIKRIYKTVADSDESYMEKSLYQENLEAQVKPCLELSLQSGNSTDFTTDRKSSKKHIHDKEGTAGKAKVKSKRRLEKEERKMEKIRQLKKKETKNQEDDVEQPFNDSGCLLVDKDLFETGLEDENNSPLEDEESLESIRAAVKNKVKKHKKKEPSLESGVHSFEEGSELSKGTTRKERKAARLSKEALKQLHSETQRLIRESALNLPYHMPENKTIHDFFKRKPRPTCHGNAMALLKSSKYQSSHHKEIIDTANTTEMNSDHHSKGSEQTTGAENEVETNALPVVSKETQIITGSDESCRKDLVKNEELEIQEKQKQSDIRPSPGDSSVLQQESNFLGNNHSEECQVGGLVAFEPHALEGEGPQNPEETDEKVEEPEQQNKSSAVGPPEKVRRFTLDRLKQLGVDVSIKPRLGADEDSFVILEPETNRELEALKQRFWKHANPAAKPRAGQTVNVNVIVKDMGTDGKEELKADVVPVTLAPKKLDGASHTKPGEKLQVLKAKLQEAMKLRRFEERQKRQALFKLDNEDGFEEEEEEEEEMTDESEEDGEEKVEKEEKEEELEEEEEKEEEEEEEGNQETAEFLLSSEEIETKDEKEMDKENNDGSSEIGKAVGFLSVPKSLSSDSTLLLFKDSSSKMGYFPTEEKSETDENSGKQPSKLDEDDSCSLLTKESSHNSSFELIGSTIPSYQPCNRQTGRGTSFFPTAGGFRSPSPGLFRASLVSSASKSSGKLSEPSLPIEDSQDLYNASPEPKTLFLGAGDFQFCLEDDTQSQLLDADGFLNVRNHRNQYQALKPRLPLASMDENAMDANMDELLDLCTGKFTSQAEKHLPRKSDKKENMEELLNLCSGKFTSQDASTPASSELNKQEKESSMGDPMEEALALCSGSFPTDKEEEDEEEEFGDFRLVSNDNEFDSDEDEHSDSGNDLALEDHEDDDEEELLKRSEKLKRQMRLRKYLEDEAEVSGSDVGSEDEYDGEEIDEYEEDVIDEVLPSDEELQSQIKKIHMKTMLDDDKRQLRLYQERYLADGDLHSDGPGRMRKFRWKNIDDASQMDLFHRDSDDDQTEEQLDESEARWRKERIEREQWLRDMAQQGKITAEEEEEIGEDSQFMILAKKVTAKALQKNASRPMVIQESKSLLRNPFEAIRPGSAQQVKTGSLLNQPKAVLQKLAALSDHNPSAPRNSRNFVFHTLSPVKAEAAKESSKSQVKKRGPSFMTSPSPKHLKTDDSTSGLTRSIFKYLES
UniProt P04066: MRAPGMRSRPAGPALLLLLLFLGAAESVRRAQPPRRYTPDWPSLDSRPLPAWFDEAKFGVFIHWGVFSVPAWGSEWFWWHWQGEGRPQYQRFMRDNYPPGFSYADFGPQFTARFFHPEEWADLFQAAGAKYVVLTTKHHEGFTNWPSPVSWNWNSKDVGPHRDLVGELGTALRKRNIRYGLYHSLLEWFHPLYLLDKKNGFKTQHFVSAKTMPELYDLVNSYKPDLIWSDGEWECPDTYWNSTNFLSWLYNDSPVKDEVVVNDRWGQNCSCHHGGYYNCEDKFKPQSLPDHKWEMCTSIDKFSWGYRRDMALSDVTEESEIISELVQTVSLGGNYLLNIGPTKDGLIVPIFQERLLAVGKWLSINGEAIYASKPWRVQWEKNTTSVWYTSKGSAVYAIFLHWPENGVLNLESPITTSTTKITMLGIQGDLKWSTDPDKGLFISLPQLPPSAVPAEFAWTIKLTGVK
UniProt P16949: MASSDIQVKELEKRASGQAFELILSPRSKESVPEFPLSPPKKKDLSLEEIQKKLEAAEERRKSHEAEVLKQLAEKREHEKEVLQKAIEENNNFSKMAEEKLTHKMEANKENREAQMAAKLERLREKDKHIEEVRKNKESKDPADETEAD

Compound: [O-][N+](C(C1=C(C(O)=C2)NC(C(C=C3)=CC=C3Cl)C4C1C=CC4)=C2Cl)=O
Experiment: melting temperature shift (compound 7 minus DMSO); higher = compound stabilises the protein
Settings: 10 µM
Protocol: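 Thermal proteome profiling (TMT mass spectrometry) in intact DAOY medulloblastoma cells or DAOY lysates treated with 10 µM compound 7 or DMSO, heated at 10 temperatures from 40.5 to 73.8 °C for 3 min. Melting curves were fitted with the Bioconductor TPP package, and the melting point difference between compound and vehicle is reported per protein (single curve per condition).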

[1] = system: DAOY cell lysate, treatment time: 20 min, 4 °C
[2] = system: intact DAOY cells, treatment time: 90 min, 37 °C

| Target | melting temperature shift [1] [°C] | melting temperature shift [2] [°C] |
| --- | --- | --- |
| ANKRD52 (UniProt Q8NB46) | -0.23 | 2.32 |
| UniProt Q16513 | -0.393 | 0.0276 |
| KIAA1217 (UniProt Q5T5P2) | 3.03 | -1.63 |
| CLIP2 (UniProt Q9UDT6) | 0.13 | 0.25 |
| NEU1 (UniProt Q99519) | 0.485 | -1.13 |
| GOT1 (UniProt P17174) | -0.225 | -1.26 |
| ZNF207 (UniProt O43670) | -2.84 | -1.9 |
| UniProt P52435 | -1.38 |  |
| NDUFA10 (UniProt O95299) | -0.109 | -1.74 |
| UTRN (UniProt P46939) | 0.375 | 0.259 |
| MOV10 (UniProt Q9HCE1) | -0.325 | 0.261 |
| DHX40 (UniProt Q8IX18) | -2.45 |  |
| UniProt Q9C002 | 3.15 | -1.67 |
| UniProt P68400 | -0.2 | -0.448 |
| CUL4B (UniProt Q13620) | -0.332 | 0.275 |
| UniProt Q6P0N0 | 3.23 |  |
| CAMK1 (UniProt Q14012) |  | -1.05 |
| CREBBP (UniProt Q92793) | 3.21 | -0.358 |
| CUL4A (UniProt Q13619) | 0.354 | -0.426 |
| BLOC1S4 (UniProt Q9NUP1) |  | 1.12 |
| UniProt Q9H3G5 | 0.544 | -0.558 |
| B4GALT1 (UniProt P15291) | 0.0142 | 0.739 |
| USP39 (UniProt Q53GS9) | 0.268 | 1.69 |

Rewritten with bars between the fields: entries from further up
Target | melting temperature shift [1] [°C] | melting temperature shift [2] [°C]
UniProt Q16513 | -0.393 | 0.0276
ZNF207 (UniProt O43670) | -2.84 | -1.9
UTRN (UniProt P46939) | 0.375 | 0.259
BLOC1S4 (UniProt Q9NUP1) |  | 1.12

Further records.

| Target | melting temperature shift [1] [°C] | melting temperature shift [2] [°C] |
| --- | --- | --- |
| UniProt P15313 |  | 0.0103 |
| B3GAT3 (UniProt O94766) | 1.06 | 0.184 |
| FNDC3A (UniProt Q9Y2H6) | 0.244 | -0.814 |
| FERMT1 (UniProt Q9BQL6) | -2.21 | -0.371 |
| SLC25A24 (UniProt Q6NUK1) | 1.65 | -2.92 |
| SCRN3 (UniProt Q0VDG4) | 1.45 | 1.51 |
| UniProt A4FU01 |  | -0.466 |
| KMT2D (UniProt O14686) | 1.19 |  |
| SH3KBP1 (UniProt Q96B97) | -0.0604 | 0.0854 |
| NXN (UniProt Q6DKJ4) | -0.699 | -0.0642 |
| THOC3 (UniProt Q96J01) | -0.0245 | 0.481 |
| LARS (UniProt Q9P2J5) | -0.929 | -0.443 |
| C1ORF52 (UniProt Q8N6N3) | -2.55 |  |
| CLPB (UniProt Q9H078) | 0.766 | -0.222 |
| TSC22D2 (UniProt O75157) |  | 1.82 |
| VPS41 (UniProt P49754) | -1.98 | -0.0653 |
| TCP11L1 (UniProt Q9NUJ3) | 0.765 | -0.663 |
| DYRK1A (UniProt Q13627) | -0.521 | 0.623 |
| RB1 (UniProt P06400) | -1.43 | -0.93 |
| UniProt P14678 | -0.205 | 1.58 |
| UQCRQ (UniProt O14949) | 2.59 | 0.9 |
| UniProt Q96JB8 | 0.444 |  |
| MNAT1 (UniProt P51948) | -0.648 | -0.437 |

| Target | melting temperature shift [1] [°C] | melting temperature shift [2] [°C] |
| --- | --- | --- |
| UniProt Q8WVN8 |  | 0.307 |
| TRIT1 (UniProt Q9H3H1) | -0.0524 |  |
| DYNC2LI1 (UniProt Q8TCX1) | -1.42 |  |
| NDUFS5 (UniProt O43920) | -0.569 |  |
| UniProt P52738 |  | 1.18 |
| CRYZL1 (UniProt O95825) | -1.84 | -0.526 |
| EXOC8 (UniProt Q8IYI6) | 0.107 | -0.706 |
| OPA1 (UniProt O60313) | 1.26 | -1.3 |
| PFKFB3 (UniProt Q16875) | 0.0729 | 0.12 |
| C16ORF58 (UniProt Q96GQ5) | -1.11 | -0.0684 |
| UniProt Q8N0W7 | 1.86 |  |
| GBF1 (UniProt Q92538) | -0.204 | -0.126 |
| PKM (UniProt P14618) | -0.181 | -0.542 |
| NAV2 (UniProt Q8IVL1) |  | 2.04 |
| DNAJC1 (UniProt Q96KC8) |  | -1.29 |
| HNRNPC (UniProt P07910) | 1.49 | -0.613 |
| UniProt Q6P9A1 |  | -1.17 |
| LIMCH1 (UniProt Q9UPQ0) | -0.961 | 0.705 |
| GSTCD (UniProt Q8NEC7) | -2.9 | 3 |
| MVB12A (UniProt Q96EY5) | -1.02 | 3.2 |
| UQCRFS1 (UniProt P47985) | 1.13 | -1.19 |
| SLC29A1 (UniProt Q99808) | 3.74 | -1.38 |
| EMG1 (UniProt Q92979) | -0.0779 | 0.44 |

| Target | melting temperature shift [1] [°C] | melting temperature shift [2] [°C] |
| --- | --- | --- |
| UniProt P03891 | -0.0653 | -1.33 |
| PDCD6IP (UniProt Q8WUM4) | -0.327 | 0.036 |
| SDHB (UniProt P21912) | 1.99 | 1.3 |
| LDLR (UniProt P01130) | 2.67 | -0.942 |
| NSMCE2 (UniProt Q96MF7) | -0.785 | -0.44 |
| IGHMBP2 (UniProt P38935) | -2.2 | 0.242 |
| UniProt Q9BVA1 | -0.748 | -0.281 |
| BRIX1 (UniProt Q8TDN6) | 0.672 |  |
| TTC39C (UniProt Q8N584) | -0.652 | 0.798 |
| TPBG (UniProt Q13641) | -0.376 |  |
| NKRF (UniProt O15226) | 1.1 | 1.85 |
| ZMYM1 (UniProt Q5SVZ6) | 0.301 |  |
| CANX (UniProt P27824) | 2.12 | 0.269 |
| KCMF1 (UniProt Q9P0J7) | 0.24 | 0.492 |
| UniProt Q15048 | -2.16 |  |
| PSPH (UniProt P78330) | 1.83 | -4.2 |
| UniProt Q5T8A7 |  | 0.104 |
| COPB1 (UniProt P53618) | -0.572 | -0.0444 |
| CLSPN (UniProt Q9HAW4) | -2.2 |  |
| PEX16 (UniProt Q9Y5Y5) | -3.34 |  |
| UniProt P04066 |  | -0.71 |
| UniProt Q8IUH3 | 0.998 |  |
| PPIE (UniProt Q9UNP9) | 1.72 | 1.24 |

| Target | melting temperature shift [1] [°C] | melting temperature shift [2] [°C] |
| --- | --- | --- |
| UniProt Q96DC8 |  | 1.33 |
| ISG20L2 (UniProt Q9H9L3) | 0.975 |  |
| BACH1 (UniProt O14867) | -0.396 |  |
| STMN1 (UniProt P16949) | -3.73 |  |
| SF3B2 (UniProt Q13435) | -0.417 | -0.278 |
| UniProt Q8TBP6 | 0.684 | -1.44 |
| TROVE2 (UniProt P10155) | 1.07 | -2.55 |
| CUL2 (UniProt Q13617) | -0.101 | -0.22 |
| RBM27 (UniProt Q9P2N5) | -0.162 | -0.911 |
| FARSA (UniProt Q9Y285) | -0.721 | -0.0485 |
| NMD3 (UniProt Q96D46) | -0.519 | -1.32 |
| CUL1 (UniProt Q13616) | -1.23 | -0.618 |
| PSME1 (UniProt Q06323) | -1.38 |  |
| TMEM97 (UniProt Q5BJF2) | 2.39 | -0.323 |
| UniProt Q96NE9 | 0.905 | 1.21 |
| UniProt P0DPI2 |  | -0.21 |
| RMDN1 (UniProt Q96DB5) | -0.487 | -0.163 |
| FLOT2 (UniProt Q14254) | 1.23 | 2.3 |
| ANKMY2 (UniProt Q8IV38) | -0.583 | 0.0288 |
| LAMB1 (UniProt P07942) | 0.878 | 0.131 |
| MGEA5 (UniProt O60502) | -0.372 | 0.199 |

Two entries drawn at random from the list so far:

| Target | melting temperature shift [1] [°C] | melting temperature shift [2] [°C] |
| --- | --- | --- |
| ANKRD52 (UniProt Q8NB46) | -0.23 | 2.32 |
| UniProt P52738 |  | 1.18 |
